The results are deposited in PubChem (AID504749; NCATS, 2011).

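A panel of P. falciparum strains inside erythrocytes is exposed to compounds for three days, then a DNA-binding dye reports the amount of parasite DNA. Each compound was titrated across a series from about 0.000037 to 29 µM. The number is the fitted AC50, the concentration giving a half-maximal change in signal; a lower value means higher potency, whether the curve shows a decrease or an increase. Calls follow the curve class and fit quality: every row here is inconclusive, covering signal-raising curves and weak, poorly fitted, partial or highest-dose-only inhibition curves.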

Values are in µM. All entries here are filed as inconclusive. These entries are mostly ones the record files as inconclusive; other results of the assay are not listed here. Potencies fitted to partial, single-point or poorly fitting curves are rough. The first word of each remark tells which way the curve ran; it can be opposite to the aim of the assay.

| Compound | condition | fitted potency (µM) | curve |
|---|---|---|---|
| `CC(=O)O[C@]1(C(C)=O)CC[C@H]2[C@@H]3C=C(Cl)C4=CC(=O)CC[C@]4(C)[C@H]3CC[C@@]21C` | CP269 | 16.94 | inhibitor, single point |
| `CC(=O)O[C@]1(C(C)=O)CC[C@H]2[C@@H]3C=C(Cl)C4=CC(=O)CC[C@]4(C)[C@H]3CC[C@@]21C` | CP260 | 11.22 | inhibitor, single point |
| `CC(=O)O[C@]1(C(C)=O)CC[C@H]2[C@@H]3C=C(Cl)C4=CC(=O)CC[C@]4(C)[C@H]3CC[C@@]21C` | DIV17 | 19.01 | inhibitor, single point |
| `CC(=O)O[C@]1(C(C)=O)CC[C@H]2[C@@H]3C=C(Cl)C4=CC(=O)CC[C@]4(C)[C@H]3CC[C@@]21C` | DIV30 | 19.01 | inhibitor, single point |
| `CC(=O)O[C@]1(C(C)=O)CC[C@H]2[C@@H]3C=C(Cl)C4=CC(=O)CC[C@]4(C)[C@H]3CC[C@@]21C` | C2A | 12.59 | inhibitor, single point |
| `CC(=O)O[C@]1(C(C)=O)CC[C@H]2[C@@H]3C=C(Cl)C4=CC(=O)CC[C@]4(C)[C@H]3CC[C@@]21C` | CP265 | 12.59 | inhibitor, single point |
| `CC(=O)O[C@]1(C(C)=O)CC[C@H]2[C@@H]3C=C(Cl)C4=CC(=O)CC[C@]4(C)[C@H]3CC[C@@]21C` | CP252 | 17.78 | inhibitor, single point |
| `CC(=O)O[C@]1(C(C)=O)CC[C@H]2[C@@H]3C=C(Cl)C4=CC(=O)CC[C@]4(C)[C@H]3CC[C@@]21C` | CP256 | 17.78 | inhibitor, single point |
| `CC(=O)O[C@]1(C(C)=O)CC[C@H]2[C@@H]3C=C(Cl)C4=CC(=O)CC[C@]4(C)[C@H]3CC[C@@]21C` | CP247 | 11.22 | inhibitor, single point |
| `CC(=O)O[C@]1(C(C)=O)CC[C@H]2[C@@H]3C=C(Cl)C4=CC(=O)CC[C@]4(C)[C@H]3CC[C@@]21C` | CP262 | 16.94 | inhibitor, single point |
| `CC(=O)O[C@]1(C(C)=O)CC[C@H]2[C@@H]3C=C(Cl)C4=CC(=O)CC[C@]4(C)[C@H]3CC[C@@]21C` | DIV14 | 13.46 | inhibitor, single point |
| `CC(=O)O[C@]1(C(C)=O)CC[C@H]2[C@@H]3C=C(Cl)C4=CC(=O)CC[C@]4(C)[C@H]3CC[C@@]21C` | TAB165 | 10 | inhibitor, single point |
| `CC(=O)O[C@]1(C(C)=O)CC[C@H]2[C@@H]3C=C(Cl)C4=CC(=O)CC[C@]4(C)[C@H]3CC[C@@]21C` | CP315 | 19.01 | inhibitor, single point |
| `CC(=O)O[C@]1(C(C)=O)CC[C@H]2[C@@H]3C=C(Cl)C4=CC(=O)CC[C@]4(C)[C@H]3CC[C@@]21C` | CP191 | 11.22 | inhibitor, single point |
| `CC(=O)O[C@]1(C(C)=O)CC[C@H]2[C@@H]3C=C(Cl)C4=CC(=O)CC[C@]4(C)[C@H]3CC[C@@]21C` | CP194 | 16.94 | inhibitor, single point |
| `CC(=O)O[C@]1(C(C)=O)CC[C@H]2[C@@H]3C=C(Cl)C4=CC(=O)CC[C@]4(C)[C@H]3CC[C@@]21C` | PAD | 11.22 | inhibitor, single point |
| `CC(=O)O[C@]1(C(C)=O)CC[C@H]2[C@@H]3C=C(Cl)C4=CC(=O)CC[C@]4(C)[C@H]3CC[C@@]21C` | CP203 | 15.1 | inhibitor, single point |
| `CC(=O)O[C@]1(C(C)=O)CC[C@H]2[C@@H]3C=C(Cl)C4=CC(=O)CC[C@]4(C)[C@H]3CC[C@@]21C` | CP201 | 16.94 | inhibitor, single point |
| `CC(=O)O[C@]1(C(C)=O)CC[C@H]2[C@@H]3C=C(Cl)C4=CC(=O)CC[C@]4(C)[C@H]3CC[C@@]21C` | ATS189 | 17.78 | inhibitor, single point |
| `CC(=O)O[C@]1(C(C)=O)CC[C@H]2[C@@H]3C=C(Cl)C4=CC(=O)CC[C@]4(C)[C@H]3CC[C@@]21C` | CP329 | 19.01 | inhibitor, single point |
| `CC(=O)O[C@]1(C(C)=O)CC[C@H]2[C@@H]3C=C(Cl)C4=CC(=O)CC[C@]4(C)[C@H]3CC[C@@]21C` | PC15 | 17.78 | inhibitor, single point |
| `CN1C(=O)C(O)N=C(c2ccccc2)c2cc(Cl)ccc21` (stereo not given) | CP266 | 3.793 | activator, partial curve, poor fit |
| `CN1C(=O)C(O)N=C(c2ccccc2)c2cc(Cl)ccc21` (stereo not given) | CP215 | 12 | inhibitor, single point |
| `CN1C(=O)C(O)N=C(c2ccccc2)c2cc(Cl)ccc21` (stereo not given) | parasite line B | 17.78 | inhibitor, single point |
| `COc1ccc2nc(S(=O)Cc3ncc(C)c(OC)c3C)[nH]c2c1` (stereo not given) | TAB165 | 11.22 | inhibitor, single point |
| `COc1ccc2nc(S(=O)Cc3ncc(C)c(OC)c3C)[nH]c2c1` (stereo not given) | CP247 | 7.08 | inhibitor, partial curve |
| `COc1ccc2nc(S(=O)Cc3ncc(C)c(OC)c3C)[nH]c2c1` (stereo not given) | DIV17 | 15.1 | inhibitor, single point |
| `COc1ccc2nc(S(=O)Cc3ncc(C)c(OC)c3C)[nH]c2c1` (stereo not given) | DIV14 | 19.01 | inhibitor, single point |
| `COc1ccc2nc(S(=O)Cc3ncc(C)c(OC)c3C)[nH]c2c1` (stereo not given) | GB4 | 19.01 | inhibitor, partial curve, poor fit |
| `COc1ccc2nc(S(=O)Cc3ncc(C)c(OC)c3C)[nH]c2c1` (stereo not given) | CP191 | 11.22 | inhibitor, single point |
| `COc1ccc2nc(S(=O)Cc3ncc(C)c(OC)c3C)[nH]c2c1` (stereo not given) | W2 | 7.569 | inhibitor, partial curve, poor fit |
| `COc1ccc2nc(S(=O)Cc3ncc(C)c(OC)c3C)[nH]c2c1` (stereo not given) | PAD | 10 | inhibitor, single point |
| `COc1ccc2nc(S(=O)Cc3ncc(C)c(OC)c3C)[nH]c2c1` (stereo not given) | PC26 | 13.46 | inhibitor, single point |
| `CC(=O)O[C@]1(C(C)=O)CC[C@H]2[C@@H]3C=C(Cl)C4=CC(=O)[C@@H]5C[C@@H]5[C@]4(C)[C@H]3CC[C@@]21C` | CP266 | 19.01 | inhibitor, single point |
| `CC(=O)O[C@]1(C(C)=O)CC[C@H]2[C@@H]3C=C(Cl)C4=CC(=O)[C@@H]5C[C@@H]5[C@]4(C)[C@H]3CC[C@@]21C` | CP201 | 19.01 | inhibitor, single point |
| `CC(=O)O[C@]1(C(C)=O)CC[C@H]2[C@@H]3C=C(Cl)C4=CC(=O)[C@@H]5C[C@@H]5[C@]4(C)[C@H]3CC[C@@]21C` | CP268 | 21.33 | inhibitor, single point |
| `CC(=O)O[C@]1(C(C)=O)CC[C@H]2[C@@H]3C=C(Cl)C4=CC(=O)[C@@H]5C[C@@H]5[C@]4(C)[C@H]3CC[C@@]21C` | CP305 | 19.01 | inhibitor, single point |
| `CC(=O)O[C@]1(C(C)=O)CC[C@H]2[C@@H]3C=C(Cl)C4=CC(=O)[C@@H]5C[C@@H]5[C@]4(C)[C@H]3CC[C@@]21C` | GB4 | 16.94 | inhibitor, single point |
| `CC(=O)O[C@]1(C(C)=O)CC[C@H]2[C@@H]3C=C(Cl)C4=CC(=O)[C@@H]5C[C@@H]5[C@]4(C)[C@H]3CC[C@@]21C` | CP291 | 19.01 | inhibitor, single point |

4 of the entries, repeated:

{"compound": "CC(=O)O[C@]1(C(C)=O)CC[C@H]2[C@@H]3C=C(Cl)C4=CC(=O)CC[C@]4(C)[C@H]3CC[C@@]21C", "condition": "CP194", "fitted potency (µM)": "16.94", "curve": "inhibitor, single point"}
{"compound": "CC(=O)O[C@]1(C(C)=O)CC[C@H]2[C@@H]3C=C(Cl)C4=CC(=O)[C@@H]5C[C@@H]5[C@]4(C)[C@H]3CC[C@@]21C", "condition": "CP268", "fitted potency (µM)": "21.33", "curve": "inhibitor, single point"}
{"compound": "COc1ccc2nc(S(=O)Cc3ncc(C)c(OC)c3C)[nH]c2c1", "stereo": "stereo not given", "condition": "CP247", "fitted potency (µM)": "7.08", "curve": "inhibitor, partial curve"}
{"compound": "CC(=O)O[C@]1(C(C)=O)CC[C@H]2[C@@H]3C=C(Cl)C4=CC(=O)CC[C@]4(C)[C@H]3CC[C@@]21C", "condition": "CP247", "fitted potency (µM)": "11.22", "curve": "inhibitor, single point"}